Source: PubChem BioAssay AID2685 (National Center for Advancing Translational Sciences (NCATS), 2010)
Hit rate of the full screen: of about 320,000 compounds, about 2,100 (0.66%) were called active. Inconclusive results, whose numbers are uncertain, are shown with a selection of clear calls. Calls come from the whole dose curve; as a rule, active = well fitted inhibition curve with a large enough effect in the signal ratio, with a control signal flat (not every such curve was filed as active); inconclusive = small, poorly fitted or top-dose-only effect, or effect the other way, or a change in a side signal; inactive = flat fitted curve, though single readings scatter; the % refers to the signal ratio. A potency beside an inconclusive call is a rough fit, not a confirmed value.

experiment: qHTS Assay for Lipid Storage Modulators in Drosophila S3 Cells; conditions: BODIPY lipid droplet fluorescence, 18-24 h, cells fed with added oleic acid; lipid storage change, negative = inhibition: at 46.1 µM (top of the series) unless noted
Outline: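 Drosophila S3 cells loaded with oleic acid (400 uM, as added) and compounds at several concentrations; lipid droplets imaged by 488-nm laser-scanning cytometry, 500–530 nm intensity and object ratio to cell channel. Percent activity normalized to 20 uM Triacsin C.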
% is set by controls: 0 for no effect and ±100 for the full control effect; potency is the fitted concentration of half-maximal effect.

| SMILES | lipid storage change, negative = inhibition | Potency | outcome |
| --- | --- | --- | --- |
| N#Cc1cccc(NC(=O)Cc2ccccc2)c1 | inconclusive: -34.6% |  |  |
| Cc1cccc(N2C(=O)CS/C2=N\NC(=O)c2ccc(Br)cc2)c1C | inconclusive: 17.1% |  |  |
| CN(C)c1ccc(CN(Cc2ccco2)C(=O)c2ccco2)cc1 |  | inconclusive: 0.0073 µM [falling, full curve, poor fit] |  |
| CCc1cc2c(cc3c(=O)n(CC(=O)N4CCN(C)CC4)ncn32)s1 |  | inconclusive: 6.51 µM [falling, single point] |  |
| COc1ccccc1-n1cc(C(=O)NCC(=O)NCc2ccc(F)cc2)c2ccccc2c1=O |  | inconclusive: 5.17 µM [activator, full curve] |  |
| COc1cccc(C(CNc2ccc(S(=O)(=O)N3CCN(C)CC3)cc2[N+](=O)[O-])N(C)C)c1 (centres undefined) |  | inconclusive: 6.51 µM [activator, single point] |  |
| COc1ccccc1Nc1nc(N)nc(CN2CCN(c3ccccc3F)CC2)n1 |  | inconclusive: 6.51 µM [rising, single point] |  |
| CCC(c1nnnn1Cc1ccco1)N1CCC(C(N)=O)CC1 (centres undefined) |  | active: 5.8 µM |  |
| CCNc1nc(SC(C)C(=O)Nc2ccccc2)nc(N2CCOCC2)n1 (centres undefined) |  | inconclusive: 29.1 µM [falling, single point] |  |
| COc1cccc(CN(CC2CCCO2)C(=O)c2cc3ccccc3oc2=O)c1 (centres undefined) | inconclusive: -0.519% |  |  |
| COc1ccc(S(=O)(=O)CCC(=O)N2CCN(c3ccc(F)cc3)CC2)cc1 | inconclusive: 13.5% |  |  |
| CCn1c(SCC(=O)Nc2ccc(NC(=O)c3ccco3)c(OC)c2)nc2ccccc2c1=O | inconclusive: 48.3% |  |  |
| CCOC(=O)CNC(=O)CSc1nnc(SCC(=O)NCC(=O)OCC)s1 | inconclusive: 54.3% |  |  |
| CC(C)(C)c1ccc(C(=O)NNC(=O)CCC(=O)Nc2ccccc2)cc1 |  | inconclusive: 29.1 µM [activator, single point] |  |
| Cc1cccc(NC(=S)N/N=C/c2ccc([N+](=O)[O-])s2)c1 |  | inconclusive: 20.6 µM [falling, single point] |  |
| COc1ccc(CN2CC(=O)N(c3cc(Cl)ccc3C)C2=S)cc1OC | inconclusive: -99.1% |  |  |
| COn1c(SCC(=O)N(C)C)nc2ccccc2c1=O | inconclusive: 2.3% |  |  |
| C=CCNC(=S)Nc1sc2c(c1C#N)CCCC2 |  | inconclusive: 0.411 µM [activator, single point] |  |
| CC1CCN(C(=O)CSc2nc3c(c(=O)n(C)c(=O)n3C)n2C)CC1 |  | inconclusive: 6.51 µM [falling, single point] |  |
| COc1ccccc1S(=O)Cc1ccc(C(=O)NC2CCCC2)o1 (centres undefined) |  | inconclusive: 1.46 µM [rising, full curve] |  |
| COCc1[nH]nc2c1C1(C(=O)Nc3ccc(F)cc31)C(C#N)=C(N)O2 (centres undefined) | inconclusive: 16.2% [at 9.22 µM] |  |  |
| Cc1cccc(C(=O)NCC(=O)OCc2nnc(-c3ccccc3)o2)c1 | inconclusive: 25.7% |  |  |
| CCOC(=O)CSC1=C(C#N)C(c2ccccc2Cl)C(C(=O)OC)C(=O)N1 (centres undefined) | inconclusive: 25.5% |  |  |
| Cc1ccc(NC(=S)N/N=C2\CC(C)(C)Oc3ccc(O)cc32)cc1 | inconclusive: -9.39% |  |  |
| CCCc1cc(=O)oc2cc(C)cc(OCC(=O)Nc3ccccn3)c12 |  | inconclusive: 0.82 µM [falling, partial curve, poor fit] |  |

| SMILES | lipid storage change, negative = inhibition | Potency | outcome |
| --- | --- | --- | --- |
| Cc1nc(N)nc(COc2ccccc2)n1 | inconclusive: 11.5% |  |  |
| CCN1C(=S)N[C@@H](c2cccc(C(F)(F)F)c2)C(C(=O)OC)=C1C | inconclusive: -30.8% |  |  |
| COc1cc(-c2nc(S(=O)(=O)c3ccc(Cl)cc3)c(N3CCOCC3)o2)cc(OC)c1OC |  | inconclusive: 1.84 µM [activator, partial curve] |  |
| COc1ccc(NC(=O)N2CCN(C(=O)c3ccco3)CC2)c(OC)c1 | inconclusive: 13.3% |  |  |
| COc1cc(C(=O)NCC2CCCO2)cc(Br)c1OCc1ccccc1 (centres undefined) | inconclusive: -39.9% |  |  |
| O=C(CCCc1c[nH]c2ccccc12)NCc1ccc2c(c1)OCO2 |  | inconclusive: 18.4 µM [activator, single point] |  |
| Cc1ccc([N+](=O)[O-])c(NC2OC(CO)C(O)C2O)c1 (centres undefined) | inconclusive: -1.58% |  |  |
| CCOC(=O)C1(Cc2cccc(OC)c2)CCN(Cc2cc(OC)ccc2OC)CC1 | inactive: -8.02% |  |  |
| Cc1ccc2oc3c(c(=O)c2c1)C(c1ccc(F)cc1)N(CCCN1CCOCC1)C3=O (centres undefined) | inconclusive: -5.75% |  |  |
| O=C(NCCN1C(=O)S/C(=C\c2cccs2)C1=O)c1ccco1 | inconclusive: 15.4% |  |  |
| CC(=O)c1cccc(CN2CCC(n3nccc3NC(=O)CCOc3ccccc3)CC2)c1 |  | inconclusive: 23.1 µM [activator, single point] |  |
| COc1ccc(/C=N/N2C(C)CCCC2C)cc1OC (centres undefined) | inconclusive: 31.3% |  |  |
| O=C(Cc1ccc2c(c1)OCCO2)c1c(O)cc(O)cc1O |  | inconclusive: 0.651 µM [activator, full curve] |  |
| Cc1snc2sc(C(=O)c3ccc(F)cc3)c(N)c12 | inconclusive: 15.7% |  |  |
| COc1cc(OC)cc(C(=O)N[C@H](C(=O)Nc2nc3c(s2)CCCC3)C(C)C)c1 | inconclusive: 108% |  |  |
| CCOC(=O)C1=C(C)NC(=O)NC1c1ccc(-c2ccc(F)cc2)o1 (centres undefined) | inconclusive: 5.02% |  |  |
| COc1ccc(C(=O)OCC(=O)NCC2CCCO2)cc1 (centres undefined) |  | inconclusive: 6.51 µM [rising, single point] |  |
| CC(=O)NC12CC3CC(CC(CC(=O)O)(C3)C1)C2 |  | inconclusive: 11.6 µM [falling, partial curve, poor fit] |  |
| COc1ccccc1CNC(=O)CCS(=O)(=O)c1ccc2c(c1)CC(C)N2C(=O)C1CC1 (centres undefined) |  |  | inactive [at 46.1 µM] |
| CN(C)C(=O)c1cc2cc([N+](=O)[O-])ccc2s1 |  | inconclusive: 4.11 µM [falling, partial curve] |  |
| COC(CNC(=O)C1CC(=O)N(CCc2ccc(C)cc2)C1)OC (centres undefined) | inconclusive: 23.4% |  |  |
| COc1ccc(Cl)cc1NC(=O)CN(C)C(=O)c1ccc(N2CCCCC2)c([N+](=O)[O-])c1 |  | inconclusive: 29.1 µM [falling, single point] |  |
| Cc1cc(C)c2nc(-c3ccccn3)cc(C(=O)NCc3ccco3)c2c1 | inconclusive: 12.1% |  |  |
| CCOC(=O)NC1(C(F)(F)F)NC(=O)N(c2cccc(C(F)(F)F)c2)C1=O (centres undefined) | inconclusive: 13.7% |  |  |
| C=CC[n+]1c(-c2ccc(Cl)cc2Cl)csc1Nc1c(C)n(C)n(-c2ccccc2)c1=O | inconclusive: -67.3% |  |  |

An excerpt from above in order of SMILES length, rising.

| SMILES | lipid storage change, negative = inhibition | Potency | outcome |
| --- | --- | --- | --- |
| COn1c(SCC(=O)N(C)C)nc2ccccc2c1=O | inconclusive: 2.3% |  |  |
| Cc1snc2sc(C(=O)c3ccc(F)cc3)c(N)c12 | inconclusive: 15.7% |  |  |
| CCC(c1nnnn1Cc1ccco1)N1CCC(C(N)=O)CC1 (centres undefined) |  | active: 5.8 µM |  |
| O=C(CCCc1c[nH]c2ccccc12)NCc1ccc2c(c1)OCO2 |  | inconclusive: 18.4 µM [activator, single point] |  |
| CCNc1nc(SC(C)C(=O)Nc2ccccc2)nc(N2CCOCC2)n1 (centres undefined) |  | inconclusive: 29.1 µM [falling, single point] |  |
| Cc1cccc(C(=O)NCC(=O)OCc2nnc(-c3ccccc3)o2)c1 | inconclusive: 25.7% |  |  |
| COc1ccc(NC(=O)N2CCN(C(=O)c3ccco3)CC2)c(OC)c1 | inconclusive: 13.3% |  |  |
| CCc1cc2c(cc3c(=O)n(CC(=O)N4CCN(C)CC4)ncn32)s1 |  | inconclusive: 6.51 µM [falling, single point] |  |
| CC(C)(C)c1ccc(C(=O)NNC(=O)CCC(=O)Nc2ccccc2)cc1 |  | inconclusive: 29.1 µM [activator, single point] |  |
| CCOC(=O)C1(Cc2cccc(OC)c2)CCN(Cc2cc(OC)ccc2OC)CC1 | inactive: -8.02% |  |  |
| COCc1[nH]nc2c1C1(C(=O)Nc3ccc(F)cc31)C(C#N)=C(N)O2 (centres undefined) | inconclusive: 16.2% [at 9.22 µM] |  |  |
| CCOC(=O)NC1(C(F)(F)F)NC(=O)N(c2cccc(C(F)(F)F)c2)C1=O (centres undefined) | inconclusive: 13.7% |  |  |
| COc1ccccc1-n1cc(C(=O)NCC(=O)NCc2ccc(F)cc2)c2ccccc2c1=O |  | inconclusive: 5.17 µM [activator, full curve] |  |
| CCn1c(SCC(=O)Nc2ccc(NC(=O)c3ccco3)c(OC)c2)nc2ccccc2c1=O | inconclusive: 48.3% |  |  |
| COc1ccccc1CNC(=O)CCS(=O)(=O)c1ccc2c(c1)CC(C)N2C(=O)C1CC1 (centres undefined) |  |  | inactive [at 46.1 µM] |
| C=CC[n+]1c(-c2ccc(Cl)cc2Cl)csc1Nc1c(C)n(C)n(-c2ccccc2)c1=O | inconclusive: -67.3% |  |  |
| COc1cc(-c2nc(S(=O)(=O)c3ccc(Cl)cc3)c(N3CCOCC3)o2)cc(OC)c1OC |  | inconclusive: 1.84 µM [activator, partial curve] |  |

The list goes on:

| SMILES | lipid storage change, negative = inhibition | Potency | outcome |
| --- | --- | --- | --- |
| COc1ccc(CN(C)C2CCCCC2)cc1 |  | inconclusive: 29.1 µM [falling, single point] |  |
| CCC(=O)N(C)CCc1cc2c(c(OC)c1/C=N/NS(=O)(=O)c1ccc(C)cc1)OCO2 | inconclusive: -8.2% |  |  |
| COCCOCC(O)CN1CCN(c2ccc(C)cc2)CC1 (centres undefined) | inconclusive: 36.3% |  |  |
| CC(C)CCN1CCN(Cc2ccc(C#CCCO)cc2)CC1CCO (centres undefined) | inconclusive: -22.5% |  |  |
| CN(CC(=O)Nc1ccc(F)c(F)c1F)C(=O)CN1C(=O)C2CCCCC2C1=O (centres undefined) | inconclusive: 10.1% |  |  |
| COCCN(C(=O)COC(=O)Cc1coc2cc(C)ccc12)c1c(N)n(Cc2ccccc2)c(=O)[nH]c1=O |  | inconclusive: 3.66 µM [activator, single point] |  |
| COc1ccc(C)cc1NS(=O)(=O)c1ccc(Cl)nc1 |  | inconclusive: 29.1 µM [activator, single point] |  |
| O=C(CCn1c(=O)[nH]c2ccsc2c1=O)NCc1ccc(F)cc1 | inconclusive: -35.4% |  |  |
| CN(CC(=O)NC(c1ccccc1)c1ccccc1)Cc1nc2ccccc2c(=O)[nH]1 |  | inconclusive: 2.06 µM [activator, partial curve] |  |
| CC1CCc2c(C(=O)NCc3cccnc3)csc2C1 (centres undefined) |  | inconclusive: 29.1 µM [falling, single point] |  |
| CC(C)C(c1nnnn1CC1CCCO1)N1CCN(C2CCCC2)CC1 (centres undefined) | inconclusive: -15.2% |  |  |
| S=C(c1ccc(N2CCOCC2)cc1)N1CCOCC1 | inconclusive: 42.5% |  |  |
| CCC(C)COC(=O)C(C#N)c1nc2ccccc2nc1N1CCCCC1 (centres undefined) |  | inconclusive: 0.0046 µM [activator, full curve, poor fit] |  |
| CC(=O)Nc1ccc2oc(C)nc2c1 | inconclusive: 28.7% |  |  |
| CCOc1ccc(/C=N/NC(=O)COc2ccccc2-c2ccccc2)cc1 | inconclusive: -25.9% |  |  |
| O=C(O)c1cc(S(=O)(=O)Nc2ccc3oc(=O)sc3c2)ccc1O |  | inconclusive: 0.0058 µM [falling, full curve, poor fit] |  |
| Cc1ccc(C2CC(c3cccc(Br)c3)Nc3nnnn32)cc1 (centres undefined) | inconclusive: 44.4% |  |  |
| COc1cc([C@H]2c3c(cc(OC)c(O)c3OC)C[C@@H](CO)[C@@H]2CO[C@@H]2O[C@H](CO)[C@@H](O)[C@H](O)[C@H]2O)cc(OC)c1O | inconclusive: -16% |  |  |
| Cc1nc(SCC(N)=O)[nH]c(=O)c1Cc1ccc(OC(C)C)cc1 | inconclusive: -19.6% |  |  |
| O=C(O)CCN1C(=O)C2C3c4ccccc4C(c4ccccc43)C2C1=O (centres undefined) | inconclusive: 36.9% |  |  |
| O=c1nc2ccccc2c(NS(=O)(=O)c2ccccc2)n1-c1ccccc1 | inconclusive: -61.2% |  |  |
| O=C(c1ccco1)N(Cc1cccc(F)c1)C1CCS(=O)(=O)C1 (centres undefined) | inconclusive: -18.5% |  |  |
| O=C(COc1ccc([N+](=O)[O-])cc1)NNC(=O)Nc1ccc([N+](=O)[O-])cc1 | inconclusive: 8.67% |  |  |
| COc1cc(CC(=O)Nc2nccs2)cc(OC)c1OC | inconclusive: 33.2% |  |  |
